Assay results taken from publication PMC6242852.
Results are given in words; binding and its absence hold for the method and conditions named. Binding seen in cells or lysates may run through a third protein. Some binding calls cover weakened binding; strength is not graded here.

Protein sequences, listed by entry. Tags and fused reporters are not part of them.
UniProt Q60974: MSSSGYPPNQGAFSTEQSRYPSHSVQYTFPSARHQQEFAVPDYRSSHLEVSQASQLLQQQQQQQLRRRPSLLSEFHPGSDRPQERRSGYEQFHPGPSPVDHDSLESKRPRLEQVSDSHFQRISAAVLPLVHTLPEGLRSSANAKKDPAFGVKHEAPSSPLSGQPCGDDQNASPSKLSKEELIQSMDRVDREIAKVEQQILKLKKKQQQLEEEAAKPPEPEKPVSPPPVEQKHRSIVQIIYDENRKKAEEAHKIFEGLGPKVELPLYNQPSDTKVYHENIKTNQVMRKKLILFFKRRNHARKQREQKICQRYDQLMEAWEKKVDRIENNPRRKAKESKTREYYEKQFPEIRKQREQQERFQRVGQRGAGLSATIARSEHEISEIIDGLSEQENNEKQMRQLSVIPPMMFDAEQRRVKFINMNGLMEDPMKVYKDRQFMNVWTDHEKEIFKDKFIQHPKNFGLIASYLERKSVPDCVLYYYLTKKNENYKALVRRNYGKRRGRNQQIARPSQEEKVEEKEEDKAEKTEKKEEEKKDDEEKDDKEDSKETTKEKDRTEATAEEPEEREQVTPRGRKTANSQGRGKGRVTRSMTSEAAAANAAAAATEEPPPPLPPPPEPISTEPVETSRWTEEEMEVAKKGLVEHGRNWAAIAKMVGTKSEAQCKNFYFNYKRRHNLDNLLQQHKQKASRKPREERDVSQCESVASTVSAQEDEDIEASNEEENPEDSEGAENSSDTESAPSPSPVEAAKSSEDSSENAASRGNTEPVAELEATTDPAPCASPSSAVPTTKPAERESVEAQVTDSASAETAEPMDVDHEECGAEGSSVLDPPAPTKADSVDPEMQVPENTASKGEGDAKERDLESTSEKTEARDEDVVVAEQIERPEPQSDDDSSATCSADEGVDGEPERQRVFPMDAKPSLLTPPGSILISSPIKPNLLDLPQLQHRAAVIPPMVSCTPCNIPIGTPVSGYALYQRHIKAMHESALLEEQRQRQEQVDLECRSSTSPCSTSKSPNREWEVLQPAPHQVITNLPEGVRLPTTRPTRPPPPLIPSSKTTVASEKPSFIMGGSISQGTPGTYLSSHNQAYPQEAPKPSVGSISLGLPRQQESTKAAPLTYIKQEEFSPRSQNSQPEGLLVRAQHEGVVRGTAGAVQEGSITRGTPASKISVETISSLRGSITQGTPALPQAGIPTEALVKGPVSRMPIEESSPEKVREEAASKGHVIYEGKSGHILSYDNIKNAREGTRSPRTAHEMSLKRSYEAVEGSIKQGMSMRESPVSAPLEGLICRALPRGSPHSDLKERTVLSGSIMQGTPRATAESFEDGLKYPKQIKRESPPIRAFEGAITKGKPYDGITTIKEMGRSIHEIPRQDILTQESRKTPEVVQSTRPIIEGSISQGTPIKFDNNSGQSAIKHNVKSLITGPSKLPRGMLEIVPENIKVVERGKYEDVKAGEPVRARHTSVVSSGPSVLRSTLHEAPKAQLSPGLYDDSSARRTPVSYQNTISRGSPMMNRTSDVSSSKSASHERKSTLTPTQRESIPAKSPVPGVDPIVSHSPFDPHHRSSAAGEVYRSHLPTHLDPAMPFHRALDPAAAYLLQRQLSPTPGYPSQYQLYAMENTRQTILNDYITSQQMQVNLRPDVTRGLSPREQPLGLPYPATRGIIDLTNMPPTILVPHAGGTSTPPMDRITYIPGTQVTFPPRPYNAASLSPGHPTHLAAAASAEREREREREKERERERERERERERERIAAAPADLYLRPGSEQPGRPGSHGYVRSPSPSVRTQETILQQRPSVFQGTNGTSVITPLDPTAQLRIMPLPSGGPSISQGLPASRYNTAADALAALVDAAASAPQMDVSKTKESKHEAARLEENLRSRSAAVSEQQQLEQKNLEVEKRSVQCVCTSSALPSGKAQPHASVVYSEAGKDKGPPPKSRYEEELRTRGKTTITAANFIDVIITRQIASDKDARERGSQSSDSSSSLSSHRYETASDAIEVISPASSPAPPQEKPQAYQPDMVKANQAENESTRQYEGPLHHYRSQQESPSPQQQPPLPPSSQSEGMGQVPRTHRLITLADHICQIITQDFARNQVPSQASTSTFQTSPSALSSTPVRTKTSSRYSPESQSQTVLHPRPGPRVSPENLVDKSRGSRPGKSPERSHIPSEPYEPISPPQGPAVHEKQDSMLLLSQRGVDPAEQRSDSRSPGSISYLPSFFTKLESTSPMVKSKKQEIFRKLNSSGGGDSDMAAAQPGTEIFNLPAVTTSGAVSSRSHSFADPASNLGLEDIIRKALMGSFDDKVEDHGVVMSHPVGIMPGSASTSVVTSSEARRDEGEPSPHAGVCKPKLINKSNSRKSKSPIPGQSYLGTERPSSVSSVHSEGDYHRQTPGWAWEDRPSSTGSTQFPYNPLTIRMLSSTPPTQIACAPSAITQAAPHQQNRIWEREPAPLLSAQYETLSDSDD
UniProt Q9R1E0: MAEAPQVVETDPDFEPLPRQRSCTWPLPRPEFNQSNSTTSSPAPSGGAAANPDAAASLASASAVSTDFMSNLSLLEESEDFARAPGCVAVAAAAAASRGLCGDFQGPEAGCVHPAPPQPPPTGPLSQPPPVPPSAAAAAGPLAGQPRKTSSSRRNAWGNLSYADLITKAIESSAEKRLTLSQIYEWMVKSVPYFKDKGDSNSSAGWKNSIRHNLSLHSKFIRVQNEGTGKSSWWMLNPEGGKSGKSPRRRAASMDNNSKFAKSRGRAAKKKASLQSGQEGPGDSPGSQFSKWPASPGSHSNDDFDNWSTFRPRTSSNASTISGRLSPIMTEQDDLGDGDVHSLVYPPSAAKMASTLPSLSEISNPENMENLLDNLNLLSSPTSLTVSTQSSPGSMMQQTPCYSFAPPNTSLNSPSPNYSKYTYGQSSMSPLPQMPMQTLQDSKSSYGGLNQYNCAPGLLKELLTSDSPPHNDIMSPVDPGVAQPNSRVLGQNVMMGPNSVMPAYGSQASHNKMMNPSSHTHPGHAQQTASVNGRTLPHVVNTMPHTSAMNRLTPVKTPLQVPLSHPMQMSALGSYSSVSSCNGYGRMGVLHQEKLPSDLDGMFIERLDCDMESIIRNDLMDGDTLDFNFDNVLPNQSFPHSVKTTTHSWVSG

Key:
Test in all cases: co-IP; endogenous proteins in lysates of Raw 264.7 cells and BMDM, without IL-4 stimulation; lysate incubated with FoxO1, HDAC3 or NCoR1 antibody 3 h at 4 °C, protein G-sepharose 1 h; CO-IP buffer 50 mM HEPES pH 8.0, 50 mM NaCl, 0.25% sodium deoxycholate, 1% NP-40; western blot
[1] = target: NCoR1 (mouse (endogenous in RAW264.7 cells and BMDM)) (UniProt Q60974)
[2] = target: T1, HDAC3 (mouse (endogenous in RAW264.7 cells and BMDM)) (UniProt O88895)
T1 sequence: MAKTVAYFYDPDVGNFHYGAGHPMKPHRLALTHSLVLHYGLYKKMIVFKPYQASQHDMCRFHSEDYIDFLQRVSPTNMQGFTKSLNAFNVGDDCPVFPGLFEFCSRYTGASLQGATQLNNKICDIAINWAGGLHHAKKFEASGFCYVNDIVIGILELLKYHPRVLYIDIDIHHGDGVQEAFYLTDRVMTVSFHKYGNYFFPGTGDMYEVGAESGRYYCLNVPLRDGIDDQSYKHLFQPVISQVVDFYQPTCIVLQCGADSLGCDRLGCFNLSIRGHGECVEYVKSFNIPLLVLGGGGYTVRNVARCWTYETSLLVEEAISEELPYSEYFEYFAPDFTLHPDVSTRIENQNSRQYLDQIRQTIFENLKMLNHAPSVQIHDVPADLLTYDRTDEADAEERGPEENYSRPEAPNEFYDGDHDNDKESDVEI

[3] = target: FoxO1 (mouse (endogenous in RAW264.7 cells and BMDM)) (UniProt Q9R1E0)

Substance: FoxO1 (from UniProt Q9R1E0 1-652)
- binding [1]: binds
- binding [2]: binds

Substance: NCoR1 (from UniProt Q60974 1-2453)
- binding [3]: binds
- binding [2]: binds
